No constants are given. Whether binding was seen depends on the method and setting. In cells and extracts the contact can be indirect. Some binding calls cover weakened binding; strength is not graded here.
How the values were obtained:
[1] = biological target: eIF4E (mouse (endogenous in hippocampus and primary hippocampal neurons)) (UniProt P63073); assay: co-IP; cultured neurons with lentiviral shRNA to Eif4g1 or control non-targeting shRNA (Supplemental Fig. 15; legend not shown)
[2] = biological target: eIF4E (mouse (endogenous in hippocampus and primary hippocampal neurons)) (UniProt P63073); assay: co-IP; hippocampal tissue lysates of WT, Fmr1 KO and Fmr1 KO + Rilmenidine mice; immunoprecipitated with an anti-eIF4E antibody overnight at 4°C, Protein A/G agarose; blotted for eIF4E, eIF4G1 and CYFIP1; naive IgG as negative control

By UniProt entry, the sequences of proteins in these tests, tags left out.
UniProt P63073: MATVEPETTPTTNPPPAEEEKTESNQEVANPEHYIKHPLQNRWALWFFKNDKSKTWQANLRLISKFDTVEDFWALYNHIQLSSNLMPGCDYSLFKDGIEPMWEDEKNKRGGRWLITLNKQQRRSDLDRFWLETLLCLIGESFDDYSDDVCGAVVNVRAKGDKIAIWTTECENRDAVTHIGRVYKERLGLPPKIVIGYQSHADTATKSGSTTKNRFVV
UniProt Q7TMB8: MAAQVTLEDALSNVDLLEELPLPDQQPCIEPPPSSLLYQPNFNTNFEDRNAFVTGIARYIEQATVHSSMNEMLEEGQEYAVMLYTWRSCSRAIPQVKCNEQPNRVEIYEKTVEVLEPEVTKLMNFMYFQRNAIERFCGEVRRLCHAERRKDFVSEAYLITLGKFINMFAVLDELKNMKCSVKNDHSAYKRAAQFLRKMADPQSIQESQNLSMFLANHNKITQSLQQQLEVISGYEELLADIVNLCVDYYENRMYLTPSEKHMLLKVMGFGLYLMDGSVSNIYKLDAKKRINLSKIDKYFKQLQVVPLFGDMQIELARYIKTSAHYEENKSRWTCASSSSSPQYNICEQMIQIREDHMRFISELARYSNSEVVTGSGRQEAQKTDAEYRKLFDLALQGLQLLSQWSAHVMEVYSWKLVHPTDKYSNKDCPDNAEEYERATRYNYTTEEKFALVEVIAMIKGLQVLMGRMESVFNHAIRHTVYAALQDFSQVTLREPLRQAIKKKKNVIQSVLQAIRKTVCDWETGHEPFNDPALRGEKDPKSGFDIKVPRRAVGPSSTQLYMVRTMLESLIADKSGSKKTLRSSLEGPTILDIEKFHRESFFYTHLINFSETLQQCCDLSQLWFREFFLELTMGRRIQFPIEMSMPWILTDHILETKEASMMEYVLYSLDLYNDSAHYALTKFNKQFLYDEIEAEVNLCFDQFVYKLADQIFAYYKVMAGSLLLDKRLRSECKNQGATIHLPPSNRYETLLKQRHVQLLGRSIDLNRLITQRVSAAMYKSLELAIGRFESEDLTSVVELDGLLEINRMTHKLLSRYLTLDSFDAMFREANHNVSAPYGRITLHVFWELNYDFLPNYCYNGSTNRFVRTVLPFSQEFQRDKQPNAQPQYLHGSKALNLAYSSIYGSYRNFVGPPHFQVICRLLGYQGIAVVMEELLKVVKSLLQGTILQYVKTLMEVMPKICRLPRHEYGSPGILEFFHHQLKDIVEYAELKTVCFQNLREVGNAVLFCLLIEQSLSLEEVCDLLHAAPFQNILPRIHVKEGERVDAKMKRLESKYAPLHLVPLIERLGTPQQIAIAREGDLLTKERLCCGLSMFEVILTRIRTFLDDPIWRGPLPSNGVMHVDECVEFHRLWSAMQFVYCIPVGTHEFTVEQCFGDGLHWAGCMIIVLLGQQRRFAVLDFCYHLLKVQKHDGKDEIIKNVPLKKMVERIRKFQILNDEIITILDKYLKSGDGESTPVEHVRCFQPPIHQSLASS

binding [1]: binds | binding [2]: binds
Substance: cytoplasmic FMRP-interacting protein 1 (CYFIP1) (from UniProt Q7TMB8 1-1253)

Source: publication PMC12408003
